Laboratory results from PubChem BioAssay AID720504 (National Center for Advancing Translational Sciences (NCATS), 2013).
The campaign covered roughly 360,000 compounds. About 10,000 (2.8%) were called active. Inconclusive results, whose numbers are uncertain, are shown with a selection of clear calls. Calls come from the whole dose curve; as a rule, active = well fitted inhibition curve with a large enough effect; inconclusive = small, poorly fitted or top-dose-only effect; inactive = flat fitted curve, though single readings scatter. Where the call is inconclusive, the potency comes from a doubtful curve fit.

Chains of the proteins cited; added tags and fusions are not shown.
UniProt P53350, whole entry, looked up: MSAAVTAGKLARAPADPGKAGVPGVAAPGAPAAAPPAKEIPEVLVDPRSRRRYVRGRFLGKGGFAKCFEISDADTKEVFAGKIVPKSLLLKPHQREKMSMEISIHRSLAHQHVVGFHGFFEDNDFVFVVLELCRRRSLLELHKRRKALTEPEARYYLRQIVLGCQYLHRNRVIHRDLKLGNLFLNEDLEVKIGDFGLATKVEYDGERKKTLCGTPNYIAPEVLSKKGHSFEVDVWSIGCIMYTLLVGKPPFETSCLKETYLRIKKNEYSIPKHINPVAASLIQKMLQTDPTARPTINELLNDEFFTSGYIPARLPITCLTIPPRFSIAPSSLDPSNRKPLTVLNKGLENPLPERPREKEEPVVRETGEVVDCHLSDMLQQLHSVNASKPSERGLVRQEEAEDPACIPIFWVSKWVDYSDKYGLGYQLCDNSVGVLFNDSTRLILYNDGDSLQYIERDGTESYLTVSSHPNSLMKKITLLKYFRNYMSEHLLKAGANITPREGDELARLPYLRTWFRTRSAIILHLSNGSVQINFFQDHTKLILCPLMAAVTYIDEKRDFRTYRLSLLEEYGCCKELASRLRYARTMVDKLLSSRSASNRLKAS

target: Serine/threonine-protein kinase PLK1 (Homo sapiens) (UniProt P53350); assay: qHTS for Inhibitors of PLK1-PDB (polo-like kinase 1 - polo-box domain): Primary Screen; details: Plk1 PBD binding of FITC phosphopeptide, fluorescence polarization; note: nearly all actives have a fitted effect of over 65% in size; for max response, negative = inhibition: series mostly up to about 57 µM
% is set by controls: 0 for no effect and ±100 for the full control effect; potency is the fitted concentration of half-maximal effect.

| Structure (SMILES) | Potency | max response, negative = inhibition |
| --- | --- | --- |
| CCOC(=O)C1=C(C)N=c2s/c(=C\c3ccc(O)c([N+](=O)[O-])c3)c(=O)n2C1c1ccccc1OC (stereo not given) | inconclusive: 37.7 µM [inhibitor, single point] | – |
| CC1CCN(c2ccc3c(c2)S(=O)(=O)c2cccc(C(=O)NCc4ccc(F)cc4)c2C3=O)CC1 | active: 84.4 µM | – |
| COc1ccc(S(=O)(=O)N=C2C=C(C)C(=O)C(C)=C2)cc1 | inconclusive: 26.7 µM [inhibitor, single point] | – |
| Cc1ccc(OCC(=O)Nc2ccc(N3CCOCC3)cc2)c([N+](=O)[O-])n1 | – | inactive: 5.62% |
| COc1ccc(NC(=O)c2ccc3c(=O)n4c(nc3c2)CCCCC4)cc1 | inconclusive: 23.8 µM [inhibitor, partial curve] | – |
| COc1cccc(-c2nc3c(c(SCC(=O)N4CCOCC4)n2)Cc2c(CO)cnc(C)c2O3)c1 | – | inconclusive: -30.2% [inhibitor] |
| CCOC(=O)CSc1nnc(NC(=O)c2cc([N+](=O)[O-])cc([N+](=O)[O-])c2)s1 | – | inactive: -20.9% |
| C=CCC(CC(O)COCCC)C(=O)NNC(=S)Nc1ccccc1 (stereo not given) | inconclusive: 26.7 µM [inhibitor, partial curve] | – |
| CCc1ccc(S(=O)(=O)Nc2ccncc2)cc1 | inconclusive: 23.8 µM [inhibitor, single point] | – |
| Nc1nc(-c2cccc(F)c2)cs1 | active: 10.6 µM | – |
| COCCSc1ccccc1C(=O)NCCCn1ccnc1 | inconclusive: 37.7 µM [inhibitor, single point] | – |
| Nc1nc(-c2ccc([N+](=O)[O-])cc2)cs1 | – | inactive: -11.1% |
| COc1cc2nc(N(CCN(C)C)C(=O)c3ccc4ccccc4c3)sc2cc1OC | inconclusive: 26.7 µM [inhibitor, single point] | – |
| CC(C)c1ccc(S(=O)(=O)N2CCN(C(=O)C3CCN(C(=O)c4ccc(F)cc4)CC3)CC2)cc1 | inconclusive: 26.7 µM [inhibitor, single point] | – |
| O=C(COc1ccc(Cl)cc1Cl)Nc1ccc(C(=O)Nc2ccccc2C(=O)O)cc1 | inconclusive: 23.8 µM [inhibitor, partial curve] | – |
| Cc1cc(C)c(C(=O)CSc2n[nH]c(-c3ccncc3)n2)c(C)c1 | – | inactive: -13% |
| COc1ccc(N=Cc2ccc(N(CCC#N)CCC#N)cc2)cc1 | – | inactive: -5.55% |
| CCN(Cc1ccccc1)C(=O)CSc1nc(C)cc(C)c1C#N | active: 21.2 µM | – |
| COc1ccc(/C=N/S(=O)(=O)CCc2ccccc2)c(OC)c1 | inconclusive: 18.9 µM [inhibitor, partial curve] | – |
| Cc1ccc(S(=O)(=O)NC(=O)C2(C)CCN2C(=O)CC2CCCC2)cc1 (stereo not given) | – | inactive: -2.39% |
| O=C1/C(=C\c2ccc(O)c(O)c2)N=C2CCCCCN12 | – | inactive: 48.8% |
| CC(=O)c1ccc(OCc2cc(C(=O)N3CCN(c4ccccc4)CC3C)no2)cc1 (stereo not given) | – | inactive: -9.03% |
| COc1cc(C)c(-c2[nH]ncc2-c2csc(C)n2)c(O)c1 | active: 29.9 µM | – |
| CC(=O)c1sc2nc(-c3ccccc3)cc(C)c2c1N | – | inactive: -17.9% |
| O=C(CCCC(=O)c1ccccc1)NCc1ccccc1 | inconclusive: 21.2 µM [inhibitor, partial curve] | – |

For convenience, part of the list above.

| Structure (SMILES) | Potency | max response, negative = inhibition |
| --- | --- | --- |
| Nc1nc(-c2cccc(F)c2)cs1 | active: 10.6 µM | – |
| COCCSc1ccccc1C(=O)NCCCn1ccnc1 | inconclusive: 37.7 µM [inhibitor, single point] | – |
| Nc1nc(-c2ccc([N+](=O)[O-])cc2)cs1 | – | inactive: -11.1% |
| COc1cc2nc(N(CCN(C)C)C(=O)c3ccc4ccccc4c3)sc2cc1OC | inconclusive: 26.7 µM [inhibitor, single point] | – |

The list goes on.

| Structure (SMILES) | Potency | max response, negative = inhibition |
| --- | --- | --- |
| Cc1c(Cl)cccc1NC(=O)C1CC(=O)N(C2CCCC2)C1 (stereo not given) | inconclusive: 29.9 µM [inhibitor, partial curve] | – |
| CC(=O)NNc1ncnc2c1cnn2-c1ccccc1 | – | inactive: -5.15% |
| COC(=O)c1ccc(CCc2cc(O)ccc2O)cc1 | inconclusive: 23.8 µM [inhibitor, single point] | – |
| C=CCNC(=S)/N=c1\sccn1C | inconclusive: 23.8 µM [inhibitor, partial curve] | – |
| COc1ccc(CNC(=O)CC2C[C@H](C(=O)N3CCOCC3)[C@@]3(CCC4CCCC4)c4[nH]c5ccccc5c4CCN3C2=O)cc1OC (stereo not given in full) | – | inactive: -17.6% |
| O=C(O)CSc1cc(C(=O)c2cc(F)ccc2O)cn2c(=O)c3c(-c4ccccc4)csc3nc12 | inconclusive: 26.7 µM [inhibitor, single point] | – |
| Cc1ccc(OCCOCCNC(C)(C)C)c([N+](=O)[O-])c1 | – | inactive: 3.24% |
| N#Cc1ccc(-c2ccco2)nc1SCc1ccccc1 | – | inactive: -3.94% |
| NC(=S)NNc1ccnc2cc(Cl)ccc12 | active: 21.2 µM | – |
| Fc1ccc(-c2nc3ccncc3[nH]2)cc1 | inconclusive: 29.9 µM [inhibitor, single point] | – |
| COc1ccccc1NC(=O)C1=C(C)NC(SCC(=O)Nc2ccc(C(=O)O)cc2)=C(C#N)C1c1cccs1 (stereo not given) | inconclusive: 29.9 µM [inhibitor, single point] | – |
| Cc1cc2c(cc1S(=O)(=O)CCC(=O)Nc1cccc(C(F)(F)F)c1)OCC(=O)N2 | inconclusive: 23.8 µM [inhibitor, single point] | – |
| CNC(=S)N/N=C/c1c2ccccc2c(Cl)c2ccccc12 | inconclusive: 26.7 µM [inhibitor, single point] | – |
| O=C(O)Cc1sc(Nc2cccc3ccccc23)nc1-c1ccc(Cl)cc1 | active: 26.7 µM | – |
| Cc1cccc(CN2CCC(CNC(=O)CCNC(=O)Cn3ccc4ccccc4c3=O)CC2)c1 | inconclusive: 21.2 µM [inhibitor, partial curve] | – |
| Cc1ccc(OC(=O)CCS(=O)(=O)c2ccc(C)cc2)cc1 | inconclusive: 29.9 µM [inhibitor, partial curve] | – |
| CCN(CC)CCN(C(=O)c1ccc(S(=O)(=O)N2CCCC2)cc1)c1nc2cc(C)cc(C)c2s1 | – | inactive: -5.36% |
| CCN1C(=O)C(F)(CC)C(=O)c2ccccc21 (stereo not given) | – | inactive: -14.9% |
| CC(C)(CCC(=S)N1CCOCC1)C1CCCCC1 | active: 11.9 µM | – |
| COc1ccc(/[N+]([O-])=C/c2ccco2)cc1 | inconclusive: 37.7 µM [inhibitor, single point] | – |
| NC(=O)CC[C@@H]1NC(=O)[C@H](CO)NC(=O)c2cc([N+](=O)[O-])cc(I)c2OCC[C@@H](C(N)=O)NC1=O | – | inactive: -3.69% |
| COc1ccc(Cl)cc1S(=O)(=O)Nc1ncn[nH]1 | inconclusive: 18.9 µM [inhibitor, partial curve] | – |
| CC1(C)Cc2ccccc2-c2n[nH]c(=S)n21 | inconclusive: 37.7 µM [inhibitor, single point] | – |
| Fc1cccc(NC(=S)Nc2cccnc2)c1 | inconclusive: 29.9 µM [inhibitor, single point] | – |
| c1ccc(NCCCNc2ccccc2)cc1 | – | inactive: -7.48% |

| Structure (SMILES) | Potency | max response, negative = inhibition |
| --- | --- | --- |
| O=c1[nH]cnc2c1sc1nc(-c3ccccc3)c3c(c12)CCCC3 | – | inactive: 0.385% |
| O=C(CCN1CCCC1)c1cccs1 | active: 10.6 µM | – |
| CC1(C)CC(=O)C2=C(C1)OC(/N=C/N1CCCC1)=C(C#N)C2c1ccccc1 (stereo not given) | – | inactive: -10.8% |
| O=S1(=O)CCO[C@H]2Cc3ccccc3[C@H]2N1Cc1cccc(C(F)(F)F)c1 | inconclusive: 26.7 µM [inhibitor, partial curve] | – |
| O=c1oc2cc(Oc3c([N+](=O)[O-])cc(C(F)(F)F)cc3[N+](=O)[O-])ccc2c2c1CCCC2 | inconclusive: 9.47 µM [inhibitor, partial curve] | – |
| CCOc1ccccc1-c1nc2c(s1)CCc1onc(-c3ccc(OC)cc3)c1-2 | – | inactive: -9.56% |
| COc1ccccc1-c1ccccc1C1=CC(=O)CC(C)(C)C1=O | – | inactive: 2.61% |
| CCc1ccc(/C=C2/C(=O)N(C)C(=S)N2CC(=O)OC)s1 | inconclusive: 37.7 µM [inhibitor, single point] | – |
| CN(C)CCC(=O)c1ccc(F)cc1 | inconclusive: 13.4 µM [inhibitor, partial curve] | – |
| COc1ccccc1/C=C/C=N/n1c(-c2n[nH]c3c2CCC3)n[nH]c1=S | inconclusive: 23.8 µM [inhibitor, partial curve] | – |
| O=C1CCCC(O)=C1Sc1ccccc1C(=O)O | active: 21.2 µM | – |
| Cc1cc2c(cc1C)N(C(=O)CCl)CCN2C(=O)CCl | inconclusive: 26.7 µM [inhibitor, partial curve] | – |
| CCCCC(=O)NCc1ccc(F)cc1 | inconclusive: 29.9 µM [inhibitor, partial curve] | – |
| CCCc1cc(=O)oc2cc(OCC(=O)NCc3cccs3)ccc12 | inconclusive: 26.7 µM [inhibitor, partial curve] | – |
| CCOc1ncccc1C(=O)Nc1ccc(Cl)cc1 | active: 10.6 µM | – |
| Cc1ccc2nc(NC(=O)CCCc3nc4ccccc4s3)sc2c1 | inconclusive: 21.2 µM [inhibitor, partial curve] | – |
| CC1OC2(C)OC(=N)C1(C#N)C(C#N)(C#N)C2c1ccccc1 (stereo not given) | – | inactive: -15.3% |
| Cc1ccc(-c2cc(C(F)(F)F)n3ncc(C(=O)O)c3n2)cc1 | active: 29.9 µM | – |
| COc1ccc(NC(=O)C2CC(=O)OC23CCOC(C)(C)C3)cc1 (stereo not given) | – | inactive: -0.429% |
| Cn1nc(C(=O)Oc2cc(=O)n(C)c3ccccc23)c2ccccc2c1=O | inconclusive: 16.8 µM [inhibitor, partial curve] | – |
| O=C(O)c1cccc(-n2cccc2/C=C\[N+](=O)[O-])c1 | active: 26.7 µM | – |
| CCOC(=O)C1=C(C)NC(=O)NC1c1ccc(-c2ccc(Cl)cc2)o1 (stereo not given) | – | inactive: -8.61% |
| N#Cc1ccccc1-n1c(N)c(C(=O)N2CCCC2)sc1=S | active: 4.23 µM | – |
| CN(C)c1ccc(/C=N/NC2=NS(=O)(=O)c3ccccc32)cc1 | – | inactive: -0.874% |
| C/C=C\C=C/C(=O)Nc1cccc(C2=NOC3(C2)C[C@H](C(N)=O)N(C(=O)c2ccc(OC)cc2)C3)c1 (stereo not given in full) | inconclusive: 26.7 µM [inhibitor, partial curve] | – |
